Results from PubChem BioAssay AID2551 (National Center for Advancing Translational Sciences (NCATS), 2010).
Out of some 310,000 compounds screened, about 17,000 (5.5%) were called active. This list was built around the results that the source calls inconclusive (neither active nor inactive); the mix of calls is not that of the screen. Calls come from the whole dose curve; as a rule, active = well fitted inhibition curve with a large enough effect; inconclusive = small, poorly fitted or top-dose-only effect, or effect the other way; inactive = no such curve, though single readings can be large or run the other way. Potencies beside an inconclusive call are fits to weak or partial responses and may not hold up.

Protein sequences, listed by entry. Tags and fused reporters are not part of them. Lines headed by an entry give the natural chain unless they say otherwise; changes in a name come on top.
UniProt P51450: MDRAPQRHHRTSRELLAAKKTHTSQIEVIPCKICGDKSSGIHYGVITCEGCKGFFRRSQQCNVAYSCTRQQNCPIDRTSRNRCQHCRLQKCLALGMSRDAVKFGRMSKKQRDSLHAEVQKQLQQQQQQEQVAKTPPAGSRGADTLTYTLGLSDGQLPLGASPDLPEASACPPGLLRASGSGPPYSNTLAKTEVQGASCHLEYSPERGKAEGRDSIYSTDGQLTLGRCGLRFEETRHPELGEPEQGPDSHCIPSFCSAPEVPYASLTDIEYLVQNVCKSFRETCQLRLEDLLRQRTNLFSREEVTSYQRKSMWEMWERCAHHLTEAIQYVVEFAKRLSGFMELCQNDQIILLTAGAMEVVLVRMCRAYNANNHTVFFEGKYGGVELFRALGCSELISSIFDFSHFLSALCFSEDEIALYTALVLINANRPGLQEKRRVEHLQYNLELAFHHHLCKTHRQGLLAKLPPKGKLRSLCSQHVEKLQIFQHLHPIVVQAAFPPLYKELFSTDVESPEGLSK

biological target: Nuclear receptor ROR-gamma (Mus musculus) (UniProt P51450); assay: qHTS for inhibitors of ROR gamma transcriptional activity; details: Drosophila S2 Gal4-RORgamma UAS-luciferase reporter, 20 h; series mostly up to 53.6 µM; note: nearly all actives have a fitted effect of over 60% in size
Method in brief: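 In this cell-based reporter format, copper sulfate (700 uM final) drives Gal4–ROR gamma fusion expression from a metallothionein promoter in Drosophila Schneider cells; compounds preincubated 1 hr, reporter read after 20 hr at ambient temperature.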
Potency is the fitted concentration of half-maximal effect.

Potency, inactive:
O=C(N=C1SC2CS(=O)(=O)CC2N1Cc1ccccc1Cl)C1CC1 (stereo not given)
CC1CCc2nc(NC(=O)CCSc3ccccc3)sc2C1 (stereo not given)
COc1ccc(CCNC(=O)C2CCN(c3ccc(N4CCOCC4)nn3)CC2)c(OC)c1
COc1ccc(CCNC(=O)C(NS(=O)(=O)c2cccc3nsnc23)C(C)C)cc1OC (stereo not given)
CC1=C(n2nnc3ccccc32)C(c2ccccc2)C(C#N)=C(N)O1 (stereo not given)
COC(=O)CNC(c1ccccc1)c1cc(C)ccc1NC(=O)CNC(=O)OCc1ccccc1 (stereo not given)
COc1ccc(-c2nc3cnc(Oc4cccc(Cl)c4)nc3n(C3CC3)c2=O)cc1

Potency, active:
Cc1ccc(O)c(C(=O)CC(=O)c2ccccc2Cl)c1 7.08 µM
CCOC(=O)c1cn[nH]c1NC(=S)Nc1ccc(Cl)cc1 2.82 µM

Potency, inconclusive:
CCOC(=O)Cc1csc(NC(=O)CSc2nnnn2-c2ccc(CC)cc2)n1 22.4 µM [inhibitor, single point]
CCOC(=O)c1nc(Nc2cccc(C)c2)c2ccccc2n1 35.5 µM [activator, single point]
Cc1cc(NC2CCCCC2)nc(NCc2ccccc2)n1 3.55 µM [activator, single point]
Cc1c(C(=O)NC(=S)Nc2ccc(NC(=O)c3cccs3)cc2)oc2ccccc12 22.4 µM [inhibitor, single point]
CCC(=O)NC(=S)NNC(=O)c1ccc(NC(=O)c2ccccc2)cc1 10 µM [inhibitor, partial curve]
CCC(C)c1ccc(NC(=O)c2[nH]c(C)c(C(C)=O)c2C)cc1 (stereo not given) 20 µM [activator, single point]
N#Cc1cccc(NC(=O)NCCc2c[nH]c3ccccc23)c1 35.5 µM [activator, single point]
COc1cc(/C=N/NC(=O)Nc2cccc3nsnc23)cc(OC)c1OC 3.16 µM [activator, partial curve, poor fit]
CCOc1ccc(NS(=O)(=O)c2ccc(C(=O)N(C)Cc3cccc(OC)c3OC)cc2)cc1 12.6 µM [activator, single point]
Cc1nc(NNC(=O)c2ccc(Cl)cc2Cl)cc(-c2ccccc2)n1 10 µM [inhibitor, single point]
CCOc1ccc(S(=O)(=O)NCCC(=O)N2CCN(c3ccc(OC)cc3)CC2)cc1 7.08 µM [activator, single point]

Pulled by compound from the list above (two):
Potency, inconclusive:
Cc1c(C(=O)NC(=S)Nc2ccc(NC(=O)c3cccs3)cc2)oc2ccccc12 22.4 µM [inhibitor, single point]
CCOC(=O)c1nc(Nc2cccc(C)c2)c2ccccc2n1 35.5 µM [activator, single point]
